Measurements reported in PubChem BioAssay AID652243 (Drosophila RNAi Screening Center, 2013).
Test: 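Fly regulators of androgen-dependent reporter output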 (primary screen). Cell system: Drosophila S2R+ cells. Reagent: long dsRNA against Drosophila genes. Duration: 72 h (48 h, then 24 h hormone). Challenge: synthetic androgen R1881 at 10 nM for 24 h. Measured: 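Firefly light from an androgen-responsive reporter and Renilla control light per well, raw and unnormalised, for each of two replicates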. Reading the numbers: firefly reporter light: higher = more light from androgen-responsive reporter; Renilla control light: higher = more constitutive control signal (cell number, transfection). Hit rule: 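Across duplicate plates, a knock-down whose log firefly/Renilla ratio shifted a set fold down or up from the GFP/LacZ control mean was a hit; the downward cut appears as both 1.5 and 3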. Meaning of the calls: active = hit: reporter lowered or raised; inactive = no hit.
The deposit covers about 24,000 reagents; below is a random part of those that have a named target and a result. Of all reagents, 246 (1%) are marked active. 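Plates not normalised; calls are printed but the firefly/Renilla ratio behind them is not deposited; fold cut for lowering reported inconsistently.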 The raw values are shown without normalisation. No sequences are given here. The record does not give: the amount of reagent.

predicted target,dsRNA,"firefly reporter light, replicate 1","firefly reporter light, replicate 2","Renilla control light, replicate 1","Renilla control light, replicate 2",activity call
TpnC47D,DRSC07564,2.36e5,2.15e5,1.43e6,1.16e6,inactive
Pnn,DRSC16415,97562,1.48e5,2.34e6,2.47e6,inactive
danr,DRSC14651,1.55e5,1.91e5,1.82e6,1.77e6,inactive
danr,DRSC27029,3.21e5,1.93e5,5.74e5,3.72e5,inactive
kek2,DRSC03552,2.30e5,2.79e5,1.89e6,2.43e6,inactive
kek2,DRSC26189,2.90e5,3.23e5,4.23e5,3.77e5,inactive
CG13933,DRSC08402,7.94e5,1.15e6,1.92e6,1.90e6,inactive
GrlHz,DRSC04424,7.45e5,4.46e5,2.01e6,1.15e6,inactive
Ptpa,DRSC00776,8.63e5,8.10e5,2.57e6,1.81e6,inactive
Ptpa,DRSC28747,5.52e5,6.31e5,1.23e6,1.21e6,inactive
CG3687,DRSC06850,41828,91304,8.23e5,8.23e5,inactive
CG3687,DRSC29588,3.75e5,5.24e5,1.27e6,1.27e6,inactive
CG3687,DRSC39030,7.57e5,7.76e5,1.16e6,1.24e6,inactive
Mct1,DRSC18681,1.93e5,2.55e5,2.46e6,2.71e6,inactive
Mct1,DRSC29006,5.08e5,5.59e5,1.33e6,1.10e6,inactive
lncRNA:CR42862,DRSC08348,1.02e6,1.02e6,1.72e6,1.69e6,inactive
lncRNA:CR42862,DRSC27596,1.92e5,1.84e5,6.55e5,5.47e5,inactive
lncRNA:CR42862,DRSC36563,7.63e5,9.30e5,1.86e6,1.80e6,inactive
ReepA,DRSC04572,8.03e5,7.62e5,1.04e6,1.03e6,inactive
ReepA,DRSC22475,2.57e5,6.17e5,8.23e5,1.32e6,inactive
ReepA,DRSC27058,3.24e5,2.52e5,7.77e5,7.63e5,inactive
ReepA,DRSC29893,4.00e5,2.50e5,9.47e5,9.56e5,inactive
E2f1,DRSC16655,2.57e5,2.09e5,2.70e6,2.53e6,inactive
E2f1,DRSC29572,2.79e5,4.51e5,5.07e5,5.07e5,inactive
PIG-L,DRSC15577,2.75e5,2.71e5,2.91e6,3.09e6,inactive
PIG-L,DRSC24921,8.63e5,7.04e5,1.15e6,9.70e5,inactive
Glut1,DRSC07927,1.16e5,1.80e5,3.05e5,3.68e5,inactive
Glut1,DRSC08378,61741,87550,8.88e5,9.06e5,inactive
Glut1,DRSC08662,1.24e6,1.49e6,2.19e6,2.00e6,inactive
Glut1,DRSC27241,2.74e5,2.67e5,7.35e5,7.45e5,inactive
Glut1,DRSC39042,1.06e6,9.08e5,2.45e6,2.76e6,inactive
CG30391,DRSC21572,7.72e5,7.78e5,1.58e6,1.32e6,inactive
Mpi,DRSC16417,82631,80070,1.70e6,1.79e6,inactive
FASN3,DRSC38779,1.38e6,1.21e6,2.38e6,1.83e6,inactive
Hpf1,DRSC12202,35476,74333,4.14e5,3.14e5,inactive
Dyrk3,DRSC21055,3.50e5,4.64e5,2.60e6,2.65e6,inactive
Dyrk3,DRSC39281,,,,,inactive
Dyrk3,DRSC39285,,,,,inactive
CG1671,DRSC06617,1.62e6,5.60e5,2.07e6,9.39e5,inactive
CG6550,DRSC07001,8.12e5,9.01e5,1.50e6,1.71e6,inactive
CG42266,DRSC21577,8.19e5,8.79e5,2.31e6,2.45e6,inactive
CG42266,DRSC21957,8.74e5,1.06e6,1.54e6,1.90e6,inactive
CG42266,DRSC29782,6.63e5,3.65e5,1.71e6,1.36e6,inactive
CG42266,DRSC39089,2.77e5,2.47e5,1.22e6,1.27e6,inactive
Rh3,DRSC16822,90725,92309,5.31e5,5.98e5,inactive
Orai,DRSC22061,1.03e6,8.03e5,1.77e6,1.42e6,inactive
CHKov1,DRSC01566,1.62e5,1.95e5,3.97e5,6.50e5,inactive
CHKov1,DRSC01696,2.24e5,2.65e5,6.39e5,6.08e5,inactive
CHKov1,DRSC14258,1.52e5,2.06e5,1.83e6,2.25e6,inactive
CHKov1,DRSC20937,9.87e5,1.16e6,1.50e6,1.31e6,inactive
CHKov1,DRSC30063,6.64e5,8.18e5,1.47e6,1.52e6,inactive
Rip11,DRSC20000,1.08e5,1.28e5,5.42e5,6.94e5,inactive
Rip11,DRSC29902,5.11e5,4.19e5,1.25e6,1.20e6,inactive
Pask,DRSC04337,1.26e6,4.95e5,1.71e6,1.17e6,inactive
Pask,DRSC28829,5.92e5,3.62e5,9.87e5,1.22e6,active
Pask,DRSC36878,,,,,inactive
Pask,DRSC36879,,,,,inactive
Smr,DRSC22986,7.55e5,7.69e5,1.33e6,1.11e6,inactive
Smr,DRSC25781,4.09e5,3.71e5,9.55e5,6.99e5,inactive
CG32681,DRSC17646,1.17e6,8.87e5,1.95e6,1.87e6,inactive
CG1722,DRSC20547,2.41e5,1.62e5,6.07e5,3.66e5,inactive
jhamt,DRSC01985,1.17e5,1.38e5,1.84e6,1.45e6,inactive
mre11,DRSC03570,3.71e5,3.09e5,3.41e6,3.06e6,inactive
mre11,DRSC22628,6.60e5,6.15e5,1.13e6,1.25e6,inactive
mre11,DRSC26311,3.91e5,4.01e5,5.48e5,5.74e5,inactive
Atu,DRSC12123,18936,32455,2.06e5,2.46e5,inactive
Pos,DRSC15415,1.64e5,2.07e5,1.84e6,2.95e6,inactive
CG14380,DRSC14840,1.16e5,90441,1.65e6,1.55e6,inactive
CG16853,DRSC01877,1.60e5,1.79e5,1.08e6,1.16e6,inactive
Gr61a,DRSC08358,72182,1.28e5,1.21e6,1.10e6,inactive
CG13339,DRSC06373,98299,74168,1.30e6,1.30e6,inactive
Sec31,DRSC07131,8.47e5,8.42e5,1.09e6,1.25e6,inactive
Sec31,DRSC27091,4.77e5,2.93e5,6.57e5,4.50e5,inactive
mu2,DRSC08726,9.22e5,8.81e5,1.08e6,1.16e6,inactive
mu2,DRSC21534,6.71e5,6.76e5,2.20e6,2.06e6,inactive

A run of entries of the results above:
predicted target,dsRNA,"firefly reporter light, replicate 1","firefly reporter light, replicate 2","Renilla control light, replicate 1","Renilla control light, replicate 2",activity call
Glut1,DRSC39042,1.06e6,9.08e5,2.45e6,2.76e6,inactive
CG30391,DRSC21572,7.72e5,7.78e5,1.58e6,1.32e6,inactive
Mpi,DRSC16417,82631,80070,1.70e6,1.79e6,inactive
FASN3,DRSC38779,1.38e6,1.21e6,2.38e6,1.83e6,inactive
Hpf1,DRSC12202,35476,74333,4.14e5,3.14e5,inactive
Dyrk3,DRSC21055,3.50e5,4.64e5,2.60e6,2.65e6,inactive
Dyrk3,DRSC39281,,,,,inactive
Dyrk3,DRSC39285,,,,,inactive
CG1671,DRSC06617,1.62e6,5.60e5,2.07e6,9.39e5,inactive
CG6550,DRSC07001,8.12e5,9.01e5,1.50e6,1.71e6,inactive
CG42266,DRSC21577,8.19e5,8.79e5,2.31e6,2.45e6,inactive
CG42266,DRSC21957,8.74e5,1.06e6,1.54e6,1.90e6,inactive
